Test results reported in patent US10364235B2, “Insecticidal compounds” (Syngenta Crop Protection LLC, priority 2009, dated 2019).
Some of these results come from one statement about several compounds together.

How the values were obtained:
Assay type in all cases: in vivo
[1] = tested on: Spodoptera littoralis; assay: Spodoptera littoralis (Egyptian cotton leafworm) cotton leaf disc spray test; details: 200 ppm sprayed on cotton leaf discs, L1 larvae, 3 days after treatment; mortality, feeding behavior, growth regulation
[2] = tested on: Heliothis virescens; assay: Heliothis virescens (tobacco budworm) egg test on artificial diet; details: 200 ppm (concentration in well 18 ppm), eggs 0-24 h old on artificial diet, 4 days; egg mortality, larval mortality, growth regulation
[3] = tested on: Plutella xylostella; assay: Plutella xylostella (diamond back moth) artificial diet test; details: 200 ppm (concentration in well 18 ppm), L2 larvae, 6 days, larval mortality, growth regulation
[4] = tested on: Diabrotica balteata; assay: Diabrotica balteata (corn root worm) artificial diet test; details: 200 ppm (concentration in well 18 ppm), L2 larvae, 5 days, larval mortality, growth regulation
[5] = tested on: Thrips tabaci; assay: Thrips tabaci (onion thrips) sunflower leaf disc spray test; details: 200 ppm sprayed on sunflower leaf discs, population of mixed ages, 7 days; mortality
[6] = tested on: Tetranychus urticae; assay: Tetranychus urticae (two-spotted spider mite) bean leaf disc spray test; details: 200 ppm sprayed on bean leaf discs, mite populations of mixed ages, 8 days; egg, larval and adult mortality

O=C(NC1CS(=O)(=O)C1)c1ccc(C2=NCC(c3cc(Cl)cc(Cl)c3)(C(F)(F)F)C2)cc1Cl (racemic) [Compound C2]
at least 80%: control of Spodoptera littoralis [1] | control of Heliothis virescens [2] | control of Plutella xylostella [3] | control of Diabrotica balteata [4] | control of Thrips tabaci [5] | control of Tetranychus urticae [6]

Cc1cc(C2=NOC(c3cc(Cl)cc(Cl)c3)(C(F)(F)F)C2Cl)ccc1C(=O)NCC(F)(F)F (stereo not drawn) [Compound B2]
at least 80%: control of Spodoptera littoralis [1] | control of Heliothis virescens [2] | control of Plutella xylostella [3] | control of Diabrotica balteata [4] | control of Thrips tabaci [5] | control of Tetranychus urticae [6]

Cc1cc(C2=NOC(c3cc(Cl)cc(Cl)c3)(C(F)(F)F)C2Br)ccc1C(=O)NC1C[S+]([O-])C1 (stereo not drawn) [Compound A7]
at least 80%: control of Spodoptera littoralis [1] | control of Heliothis virescens [2] | control of Plutella xylostella [3] | control of Diabrotica balteata [4] | control of Thrips tabaci [5] | control of Tetranychus urticae [6]

Cc1cc(C2=NCC(c3cc(Cl)cc(Cl)c3)(C(F)(F)F)C2)ccc1C(=O)NCC1CCS1(=O)=O (racemic) [Compound A10]
at least 80%: control of Spodoptera littoralis [1] | control of Heliothis virescens [2] | control of Plutella xylostella [3] | control of Diabrotica balteata [4] | control of Thrips tabaci [5] | control of Tetranychus urticae [6]

Cc1cc(C2=NOC(c3cc(Cl)cc(Cl)c3)(C(F)(F)F)C2Cl)ccc1C(=O)NCCC(F)(F)F (stereo not drawn) [Compound B5]
at least 80%: control of Spodoptera littoralis [1] | control of Heliothis virescens [2] | control of Plutella xylostella [3] | control of Diabrotica balteata [4] | control of Thrips tabaci [5] | control of Tetranychus urticae [6]

Cc1cc(C2=NOC(c3cc(Cl)cc(Cl)c3)(C(F)(F)F)C2Br)ccc1C(=O)NCc1nc2ccccc2[nH]1 (stereo not drawn) [Compound A5]
at least 80%: control of Spodoptera littoralis [1] | control of Heliothis virescens [2] | control of Plutella xylostella [3] | control of Diabrotica balteata [4] | control of Thrips tabaci [5] | control of Tetranychus urticae [6]

O=C(NC1C[S+]([O-])C1)c1ccc(C2=NCC(c3cc(Cl)cc(Cl)c3)(C(F)(F)F)C2)cc1Cl (racemic) [Compound C3]
at least 80%: control of Spodoptera littoralis [1] | control of Heliothis virescens [2] | control of Plutella xylostella [3] | control of Diabrotica balteata [4] | control of Thrips tabaci [5] | control of Tetranychus urticae [6]
